According to the supplement of paper PMC10849652:
The other results are listed elsewhere or left out.

Protein sequences, listed by entry. Tags and fused reporters are not part of them. Lines headed by an entry give the natural chain unless they say otherwise; changes in a name come on top.
UniProt Q5SNV9: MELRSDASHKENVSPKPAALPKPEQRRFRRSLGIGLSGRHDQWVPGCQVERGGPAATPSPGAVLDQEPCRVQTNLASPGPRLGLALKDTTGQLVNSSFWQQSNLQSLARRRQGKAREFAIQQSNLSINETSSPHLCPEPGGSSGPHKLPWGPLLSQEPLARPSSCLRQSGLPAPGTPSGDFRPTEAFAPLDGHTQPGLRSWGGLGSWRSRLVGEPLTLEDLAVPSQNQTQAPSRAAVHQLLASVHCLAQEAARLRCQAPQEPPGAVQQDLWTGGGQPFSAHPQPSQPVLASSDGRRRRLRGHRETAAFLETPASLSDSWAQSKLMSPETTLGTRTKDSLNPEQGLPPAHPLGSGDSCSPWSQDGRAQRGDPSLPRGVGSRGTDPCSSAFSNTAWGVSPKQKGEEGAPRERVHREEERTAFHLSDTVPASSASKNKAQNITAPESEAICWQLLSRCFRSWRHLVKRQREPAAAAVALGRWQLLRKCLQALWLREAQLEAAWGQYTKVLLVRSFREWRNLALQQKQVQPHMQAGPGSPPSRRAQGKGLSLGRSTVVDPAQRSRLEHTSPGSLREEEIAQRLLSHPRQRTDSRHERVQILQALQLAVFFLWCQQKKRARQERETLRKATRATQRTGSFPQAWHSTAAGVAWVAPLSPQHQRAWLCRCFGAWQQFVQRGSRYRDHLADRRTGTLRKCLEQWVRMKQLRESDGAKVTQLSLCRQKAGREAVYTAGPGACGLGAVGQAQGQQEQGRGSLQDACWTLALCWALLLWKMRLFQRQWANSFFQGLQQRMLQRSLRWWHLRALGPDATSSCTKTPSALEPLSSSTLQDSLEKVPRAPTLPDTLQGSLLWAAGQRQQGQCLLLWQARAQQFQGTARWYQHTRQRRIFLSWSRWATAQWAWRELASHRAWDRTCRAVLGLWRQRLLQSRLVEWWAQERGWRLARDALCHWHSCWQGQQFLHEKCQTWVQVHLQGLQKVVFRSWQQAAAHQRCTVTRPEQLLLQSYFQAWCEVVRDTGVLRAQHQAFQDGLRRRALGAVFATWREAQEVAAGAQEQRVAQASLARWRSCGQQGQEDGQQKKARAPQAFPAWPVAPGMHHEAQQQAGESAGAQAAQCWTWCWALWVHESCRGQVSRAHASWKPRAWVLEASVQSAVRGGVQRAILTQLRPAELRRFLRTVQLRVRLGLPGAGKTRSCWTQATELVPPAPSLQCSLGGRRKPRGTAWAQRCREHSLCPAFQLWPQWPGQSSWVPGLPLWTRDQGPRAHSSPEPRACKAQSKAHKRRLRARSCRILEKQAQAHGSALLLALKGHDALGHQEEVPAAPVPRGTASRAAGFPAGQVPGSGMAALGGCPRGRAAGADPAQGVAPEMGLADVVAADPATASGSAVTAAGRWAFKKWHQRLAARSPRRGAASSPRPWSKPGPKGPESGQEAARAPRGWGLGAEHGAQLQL
UniProt Q9NS00: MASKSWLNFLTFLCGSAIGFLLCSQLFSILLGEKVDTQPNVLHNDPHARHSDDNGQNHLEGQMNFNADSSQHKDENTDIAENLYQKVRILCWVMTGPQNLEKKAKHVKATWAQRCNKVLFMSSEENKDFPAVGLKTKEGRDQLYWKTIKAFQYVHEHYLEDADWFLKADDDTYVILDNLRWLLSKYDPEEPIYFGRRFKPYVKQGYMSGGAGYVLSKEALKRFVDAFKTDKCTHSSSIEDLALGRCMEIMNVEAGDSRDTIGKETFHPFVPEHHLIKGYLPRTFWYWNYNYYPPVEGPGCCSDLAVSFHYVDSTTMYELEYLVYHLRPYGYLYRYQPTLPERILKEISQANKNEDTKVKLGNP
UniProt Q9BUW7: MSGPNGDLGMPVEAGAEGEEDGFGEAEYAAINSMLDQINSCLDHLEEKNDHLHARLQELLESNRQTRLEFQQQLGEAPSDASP
UniProt Q86Y37: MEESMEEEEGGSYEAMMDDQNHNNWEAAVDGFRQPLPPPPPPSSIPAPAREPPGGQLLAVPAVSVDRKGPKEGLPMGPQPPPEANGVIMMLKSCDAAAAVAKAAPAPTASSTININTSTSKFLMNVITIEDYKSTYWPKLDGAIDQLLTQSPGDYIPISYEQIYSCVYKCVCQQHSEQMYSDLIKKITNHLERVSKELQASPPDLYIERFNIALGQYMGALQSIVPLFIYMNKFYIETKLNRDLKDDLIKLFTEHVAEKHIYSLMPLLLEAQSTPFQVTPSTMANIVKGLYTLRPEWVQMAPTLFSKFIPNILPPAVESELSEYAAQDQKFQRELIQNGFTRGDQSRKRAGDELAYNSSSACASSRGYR
UniProt A1L170: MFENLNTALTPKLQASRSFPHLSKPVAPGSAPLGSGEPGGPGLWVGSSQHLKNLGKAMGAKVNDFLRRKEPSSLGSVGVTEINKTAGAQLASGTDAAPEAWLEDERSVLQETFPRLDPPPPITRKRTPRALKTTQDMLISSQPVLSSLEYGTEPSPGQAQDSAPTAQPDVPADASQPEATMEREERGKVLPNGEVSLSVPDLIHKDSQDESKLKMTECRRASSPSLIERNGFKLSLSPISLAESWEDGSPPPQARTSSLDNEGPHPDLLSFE
UniProt Q9BSJ5: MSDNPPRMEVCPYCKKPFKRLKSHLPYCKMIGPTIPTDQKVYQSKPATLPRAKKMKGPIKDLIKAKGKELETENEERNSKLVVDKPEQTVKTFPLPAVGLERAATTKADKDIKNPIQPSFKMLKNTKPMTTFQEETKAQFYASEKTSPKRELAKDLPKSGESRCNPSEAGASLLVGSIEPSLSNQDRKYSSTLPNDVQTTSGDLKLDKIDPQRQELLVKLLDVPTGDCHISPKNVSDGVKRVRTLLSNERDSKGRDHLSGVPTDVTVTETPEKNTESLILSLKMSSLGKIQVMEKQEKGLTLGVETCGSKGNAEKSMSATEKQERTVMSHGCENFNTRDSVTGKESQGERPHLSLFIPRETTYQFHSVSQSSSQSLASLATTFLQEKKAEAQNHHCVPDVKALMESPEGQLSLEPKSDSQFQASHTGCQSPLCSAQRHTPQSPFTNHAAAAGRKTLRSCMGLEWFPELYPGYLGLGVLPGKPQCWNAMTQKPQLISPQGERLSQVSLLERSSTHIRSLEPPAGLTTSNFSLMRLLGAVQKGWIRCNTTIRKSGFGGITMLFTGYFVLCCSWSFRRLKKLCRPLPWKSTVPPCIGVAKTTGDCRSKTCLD
UniProt Q8IYL3: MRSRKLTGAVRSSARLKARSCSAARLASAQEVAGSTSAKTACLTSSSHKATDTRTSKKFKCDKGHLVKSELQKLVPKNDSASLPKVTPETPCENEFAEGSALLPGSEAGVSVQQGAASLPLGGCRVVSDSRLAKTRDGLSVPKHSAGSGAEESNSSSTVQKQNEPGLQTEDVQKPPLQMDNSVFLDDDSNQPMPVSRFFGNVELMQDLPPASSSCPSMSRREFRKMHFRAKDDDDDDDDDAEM
UniProt Q9GZU0: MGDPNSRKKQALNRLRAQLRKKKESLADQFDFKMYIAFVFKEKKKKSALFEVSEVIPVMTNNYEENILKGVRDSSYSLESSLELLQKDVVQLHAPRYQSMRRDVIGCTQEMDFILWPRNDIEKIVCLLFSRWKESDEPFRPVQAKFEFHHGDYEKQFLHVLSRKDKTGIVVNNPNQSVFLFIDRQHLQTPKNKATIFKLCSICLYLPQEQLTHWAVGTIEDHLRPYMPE
UniProt Q8NDD1: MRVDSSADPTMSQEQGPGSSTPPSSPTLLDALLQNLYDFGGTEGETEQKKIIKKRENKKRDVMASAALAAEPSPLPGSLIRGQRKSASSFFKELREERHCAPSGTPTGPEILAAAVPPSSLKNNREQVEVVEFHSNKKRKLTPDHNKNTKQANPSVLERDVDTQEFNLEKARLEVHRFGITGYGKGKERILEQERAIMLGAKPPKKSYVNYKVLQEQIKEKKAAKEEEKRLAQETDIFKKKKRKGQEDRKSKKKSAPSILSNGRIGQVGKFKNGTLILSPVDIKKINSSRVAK

Columns and labels:
Assay in all cases: log2 fold change, soluble protein after heating vs DMSO (PISA); higher = thermal stabilisation; K562 lysate, 10 uM; active = over 0.2 and 3.5 SD of the protein, either way, in both replicates (recomputed)
vemurafenib = compound: CCCS(=O)(=O)Nc1ccc(F)c(C(=O)c2c[nH]c3ncc(-c4ccc(Cl)cc4)cc23)c1F [vemurafenib]
Method in brief: (§1)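 Soluble protein was defined as the supernatant remaining after 21,000xg for 90 min, following pooling of heated aliquots and adjustment to 0.5% NP-40 at 4°C. Before that, crude K562 extract at 1 mg/mL protein in PBS pH 7.4 with 1 mM MgCl2 was treated with 10 μM compound for 30 min and heated for 3 min across 48°C-58°C. Quantification used TMTpro 16plex LC-MS/MS with channel sums equalised, and values are log-two fold changes in thermal stability relative to solvent controls from duplicates.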

[1] = compound: CCCS(=O)(=O)Nc1ccc(F)c(C(=O)c2c[nH]c3ncc(Cl)cc23)c1F
Method in brief: as §1

barasertib = compound: CCN(CCCOc1ccc2c(Nc3cc(CC(=O)Nc4cccc(F)c4)[nH]n3)ncnc2c1)CCOP(=O)(O)O [barasertib]
Method in brief: as §1

volasertib = compound: CC[C@@H]1C(=O)N(C)c2cnc(Nc3ccc(C(=O)N[C@H]4CC[C@H](N5CCN(CC6CC6)CC5)CC4)cc3OC)nc2N1C(C)C [volasertib]
Method in brief: as §1

[2] = compound: CCn1c(C(=O)N(C2CC2)C2CC2)cc2c3c(ncn3C)c(Nc3cc(C)n(C)n3)nc21
Method in brief: as §1

[3] = compound: CCn1cc(-c2ccnc3[nH]c(-c4cccc(CN(C)C)c4)cc23)c(-c2ccc(NC(=O)N(C)C)cc2)n1
Method in brief: as §1

[4] = compound: CN1CCC(CNc2ccc3ncc(-c4cccc(OC(F)(F)F)c4)n3n2)CC1
Method in brief: as §1

saracatinib = compound: CN1CCN(CCOc2cc(OC3CCOCC3)c3c(Nc4c(Cl)ccc5c4OCO5)ncnc3c2)CC1 [saracatinib]
Method in brief: as §1

sotrastaurin = compound: CN1CCN(c2nc(C3=C(c4c[nH]c5ccccc45)C(=O)NC3=O)c3ccccc3n2)CC1 [sotrastaurin]
Method in brief: as §1

alvocidib = compound: CN1CC[C@H](c2c(O)cc(O)c3c(=O)cc(-c4ccccc4Cl)oc23)[C@H](O)C1 [alvocidib]
Method in brief: as §1

Tubastatin A = compound: CN1CCc2c(c3ccccc3n2Cc2ccc(C(=O)NO)cc2)C1 [Tubastatin A]
Method in brief: as §1

[5] = compound: CNC(=O)C1=CC=CC=C1NC2=NC(=NC=C2Cl)NC3=C(C=C(C=C3)N4CCOCC4)OC
Method in brief: as §1

defactinib = compound: CNC(=O)c1ccc(Nc2ncc(C(F)(F)F)c(NCc3nccnc3N(C)S(C)(=O)=O)n2)cc1 [defactinib]
Method in brief: as §1

[6] = compound: CNc1nc(-c2ccc3c(N)n[nH]c3c2)cc(N2C[C@@H](C(=O)NC3CCCCC3)CC[C@H]2C)n1
Method in brief: as §1

alisertib = compound: COc1cc(Nc2ncc3c(n2)-c2ccc(Cl)cc2C(c2c(F)cccc2OC)=NC3)ccc1C(=O)O [alisertib]
Method in brief: as §1

[7] = compound: COc1cc2nc(-c3cc(F)ccc3O)nc(N[C@@H]3CNC[C@H]3C(C)(C)O)c2cc1OC
Method in brief: as §1

gefitinib = compound: COc1cc2ncnc(Nc3ccc(F)c(Cl)c3)c2cc1OCCCN1CCOCC1 [gefitinib]
Method in brief: as §1

[8] = compound: CC[C@@H]1C(=O)N(C)c2cnc(Nc3ccc(C(=O)NC4CCN(C)CC4)cc3OC)nc2N1C1CCCC1
Method in brief: as §1

encorafenib = compound: COC(=O)N[C@@H](C)CNc1nccc(-c2cn(C(C)C)nc2-c2cc(Cl)cc(NS(C)(=O)=O)c2F)n1 [encorafenib]
Method in brief: as §1

[9] = compound: COC(=O)[C@H](CCSC)NC(=O)C1=C(C=C(C=C1)NC[C@H](CS)N)C2=CC=CC=C2
Method in brief: as §1

Measured: log2 fold change

C1orf167 isoform 2 (UniProt Q5SNV9)
inactive: vemurafenib 0.048 | [1] -0.084 | barasertib 0.088 | volasertib 0.021 | [2] -0.12 | [3] -0.259 | [4] 0.066 | saracatinib 0.048 | sotrastaurin 0.19 | alvocidib -0.118 | Tubastatin A 0.048 | [5] 0.034 | defactinib -0.214 | [6] 0 | alisertib 0.073 | [7] 0.035 | gefitinib 0.078

C1GALT1 (UniProt Q9NS00)
inactive: vemurafenib 0 | [1] -0.027 | volasertib -0.125 | [2] -0.055 | [3] 0.087 | [4] -0.023 | saracatinib -0.039 | sotrastaurin 0.006 | alvocidib -0.022 | Tubastatin A 0.059 | [5] 0.121 | defactinib 0.003 | [6] -0.02 | [7] 0.038

CAPN1 (UniProt E9PLX0)
inactive: vemurafenib -0.211 | [1] 0.164 | [8] 0.076 | volasertib 0.099 | [2] -0.128 | [3] 0.49 | [4] 0.145 | sotrastaurin -0.037 | alvocidib -0.021 | Tubastatin A 0.311 | defactinib -0.427 | encorafenib -0.17 | [9] -0.101 | alisertib -0.058 | [7] -0.074 | gefitinib 0.057

C9orf16 (UniProt Q9BUW7)
inactive: vemurafenib 0.177 | [8] 0.093 | [2] -0.072 | [3] 0.242 | [4] -0.036 | saracatinib -0.039 | sotrastaurin 0.098 | alvocidib 0.138 | Tubastatin A -0.056 | [5] 0.088 | defactinib -0.02 | [6] -0.018 | encorafenib -0.026 | [9] 0.034

CACUL1 (UniProt Q86Y37)
inactive: vemurafenib 0.04 | [1] 0.053 | [8] -0.04 | volasertib 0.106 | [2] -0.072 | [3] 0.012 | [4] -0.111 | saracatinib -0.026 | sotrastaurin 0.103 | alvocidib 0.022 | Tubastatin A -0.029 | [5] -0.027 | defactinib 0.027 | [6] -0.04 | encorafenib -0.02 | [9] -0.042 | [7] 0.212

C1orf226 isoform 2 (UniProt A1L170)
inactive: vemurafenib 0.192 | [1] -0.014 | volasertib -0.034 | [2] 0.064 | Tubastatin A 0.183 | defactinib 0.006 | [7] 0.169

C17orf80 (UniProt Q9BSJ5)
inactive: vemurafenib -0.064 | [1] 0.015 | volasertib 0.001 | [3] -0.134 | [4] 0.056 | sotrastaurin 0.044 | alvocidib -0.077 | [5] 0.072 | defactinib -0.071 | [7] 0.009

C1orf174 (UniProt Q8IYL3)
inactive: vemurafenib 0.054 | [1] 0.04 | barasertib 0.03 | volasertib 0.037 | [2] -0.069 | [3] -0.048 | [4] 0.122 | saracatinib -0.075 | sotrastaurin 0.017 | alvocidib 0.033 | Tubastatin A 0.05 | defactinib 0.015 | [6] 0.042 | [7] 0.028

C6orf62 (UniProt Q9GZU0)
inactive: vemurafenib 0.032 | [3] 0.315 | [4] -0.097 | saracatinib -0.313 | sotrastaurin 0.189 | alvocidib -0.105 | defactinib -0.068 | [6] -0.002

C1orf131 isoform 5 (UniProt Q8NDD1)
inactive: vemurafenib 0.034 | [1] 0.026 | [8] 0.148 | volasertib -0.029 | [2] -0.042 | [3] -0.242 | [4] 0.095 | saracatinib -0.009 | sotrastaurin 0.017 | alvocidib -0.118 | Tubastatin A -0.036 | [5] 0.03 | defactinib 0.013 | [6] 0.148 | encorafenib 0.127 | [9] 0.02 | alisertib 0.148 | [7] -0.038 | gefitinib 0.111
